Test results: article PMC11471602
Results are given in words; binding and its absence hold for the method and conditions named. In cells and extracts the contact can be indirect. Some binding calls cover weakened binding; strength is not graded here. Tags and fused reporters may be left off the sequences shown.

Molecular target: T1, PRG5-eGFP (plasticity-related gene 5 fused to enhanced green fluorescent protein) (mouse) (UniProt Q8BJ52)
T1 sequence: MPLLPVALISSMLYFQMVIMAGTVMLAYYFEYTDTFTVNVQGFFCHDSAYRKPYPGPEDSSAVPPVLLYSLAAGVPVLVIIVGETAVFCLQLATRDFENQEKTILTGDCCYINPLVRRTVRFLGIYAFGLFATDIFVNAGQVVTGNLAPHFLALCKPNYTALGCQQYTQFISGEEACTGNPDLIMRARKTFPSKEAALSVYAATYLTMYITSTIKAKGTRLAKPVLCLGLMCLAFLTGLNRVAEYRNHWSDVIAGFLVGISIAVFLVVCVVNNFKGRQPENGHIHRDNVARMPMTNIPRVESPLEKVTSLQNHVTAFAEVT
Assay: co-IP; HEK293T co-transfected, lysed 19 h after transfection in 150 mM NaCl, 1% Ecosurf EH-9, 50 mM Tris HCl pH 8.0 with protease inhibitors; eGFP fusion proteins isolated with µMACS GFP beads; blot with anti-FLAG

binding: binds
B1: PRG5-FLAG (protein, UniProt Q8BJ52 1-321)
chain: MPLLPVALISSMLYFQMVIMAGTVMLAYYFEYTDTFTVNVQGFFCHDSAYRKPYPGPEDSSAVPPVLLYSLAAGVPVLVIIVGETAVFCLQLATRDFENQEKTILTGDCCYINPLVRRTVRFLGIYAFGLFATDIFVNAGQVVTGNLAPHFLALCKPNYTALGCQQYTQFISGEEACTGNPDLIMRARKTFPSKEAALSVYAATYLTMYITSTIKAKGTRLAKPVLCLGLMCLAFLTGLNRVAEYRNHWSDVIAGFLVGISIAVFLVVCVVNNFKGRQPENGHIHRDNVARMPMTNIPRVESPLEKVTSLQNHVTAFAEVT
